Results from paper PMC6401487.
These are yes or no findings as the source states them, for the method shown. Binding seen in cells or lysates may run through a third protein. Here binding means that the protein was enriched with, or labelled near, the bait; the list need not be complete. A no says only that the protein was not detected with the bait. Where a sequence is shown, tags or fusion partners need not be part of it.

T1: Ferredoxin 3 (Fd-3), encoded by TK2012, with C-terminal HA-His6 extension (Thermococcus kodakarensis) (UniProt Q5JDE8)
T1 sequence: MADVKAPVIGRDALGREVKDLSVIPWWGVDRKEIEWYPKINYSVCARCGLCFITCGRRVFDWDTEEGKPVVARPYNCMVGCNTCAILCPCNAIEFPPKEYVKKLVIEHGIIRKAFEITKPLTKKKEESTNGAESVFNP

B1: Membrane-bound hydrogenase subunit, MbhL (TK2091) (protein, UniProt Q5JIL3 1-426)
chain: MTEKVEYWVKIPFGPIHPGLEEPEKFILTLDGERIVDVDVKLGYNLRGIQWIALRRNYIQIMYLAERMCGICSFSHNHTYTRAVEEAGGIEVPERAEYIRVIIGELERIHSHLLNLGVLAHDIGYDTLLHLTWLAREKVMDTLEAVSGNRVNYSMVTIGGVRRDIDEKKRRIIEEMIKYYREVFPQIEEAFLHDPTIEARFRDTAVISKRVALEQGAVGPTGRGSGIRDDARWSEGLGVYPDLGIKPVMPQDVTGERPRGDVFDRMAVRIGELWQSLELIEHALDAMPDGPIKTFPKDNVLYAKLRLMVDGEGIGRYEAPRGELVHYVRGKKGSDKPLRWKPREPTFPNLFAVARGVIGDQVADFVVAVASIDPCLSCTDRVAVVQDGKKKILTEKDLLRESIKRTREINPDIKGDPSPLGVGCVR
B2: Protein disulfide oxidoreductase (protein, UniProt Q5JE30 1-226)
chain: MGLISDADKKVIKEEFFSKMTNPVKLIVFVGKEHCQYCDQLKQLVQELSELTDKLSYEVVDFDTEEGKKLAEQYRIDRAPATTITQDGKDMGVRYFGLPAGHEFGAFLEDIVDVSNGTTDLAPDTKEAIHGVDKDVRILVFVTPTCPYCPLAVRMAHKFAIENTLAGKGKILGDMVEAIEYPEWADQYSVMAVPKIVIQVDGEDKVQFEGAYPEKMFLEKLLAALE
B3: V-type ATP synthase, subunit H (protein, UniProt Q5JDS3 1-103)
chain: MEDVIKRIVEAEKEAETRIEKAEHEAKEIIRKAKEEAKKIEEETIKKAEEESQNLIEKARLEGETEAKKILEEGEKEISALRERAESNFETAIQEAIELVRGA
B4: Membrane-bound hydrogenase subunit, MbhK (TK2090) (protein, UniProt Q5JIL4 1-189)
chain: MSEANPITEVNEVKEPTKAEDVARKIAERFPSASVEVKTNKWGRQRVWVRVPREDYKALMSFIKGLDPEAHYSIGIEQDWGEELGFLSHILIHYRDAPAVSLIVDVHAPKDDPVLPDISDVFPIALQFEREGMEMVGLDFEGAPDKRRLFLPDDFPEGIYPLRLDDKGISEEMVHNAGHPYYIKGGAKK
B5: Membrane-bound hydrogenase subunit, MbhJ (protein, UniProt Q5JHU7 1-176)
chain: MAITVPANQNGQKSNPSERERLEKRIAQLCRFLGKSPWVFHVNSGSCNGCDIEIIAALTPRYDAERFGVKLVGSPRHADILVVTGPVTNQSLERVKLVYEQTPDPKIVIAVGACPTGGSVFYESPFTNAPLDRVIPVDVYVPGCPPRPEAILHGVVLALEKLARMIKGEVPEEVGE
B6: Type II DNA topoisomerase VI, subunit A (protein, UniProt Q5JH82 1-385)
chain: MPKRKIQRERPKEKFSYDPRKVLKMLDEHARRILEDIKAGKNPHFDIPMRGLSNVYFDEKSRLIKMGDKLSRRYFLNVAHARKFMQTLLIMAYVKRLVSEGKHASLREAYYANKHTIPGTRENTFEDQSESDPIIEDLERMFGVLREEMHITADRRGYIYGDIVIRDGEDEFNASRLGSGGWAVPGTVEHIQFPEINVDYALVVETAAMADRLIEEKFPKRENALIIATQGQASRGVRRLIHRLHYEEGLPIIVFTDGDPYGWYIYSTIKQGSINLAYLSDKLATPESKFVGMTMDDIKKYGLENVTEKLKGIPPNKKGGPTGDYKRILEEMNYPWFQNKEWQRQLQLALKWGVRIEQQALANKSLEFVAKEYLPEKINNGDLLP
B7: V-type ATP synthase, subunit A (protein, UniProt Q5JIR3 1-585)
chain: MGRIIRVTGPLVVADGMKGAKMYEVVRVGEIGLIGEIIRLEGDKAVIQVYEETAGIRPGEPVEGTGSSLSVELGPGLLTAMYDGIQRPLEVLRQLSGDFIARGLTAPALPRDKKWHFTPKVKVGDKVVGGDVLGVVPETSIIEHKILVPPWVEGEIVEIAEEGDYTVEEVIAKVKKPDGTIEELKMYHRWPVRVKRPYKQKLPPEVPLITGQRTIDTFFSQAKGGTAAIPGPFGSGKTVTQHQLAKWSDAQVVVYIGCGERGNEMTDVLEEFPKLKDPKTGKPLMERTVLIANTSNMPVAAREASIYTGITIAEYFRDQGYDVALMADSTSRWAEALREISGRLEEMPGEEGYPAYLASKIAEFYERAGRVITLGSDERVGSVSVIGAVSPPGGDFSEPVVQNTLRVVKVFWALDADLARRRHFPAINWLRSYSLYIDAIQDWWHKNVDPEWRKMRDTAMALLQKEAELQEIVRIVGPDALPDREKAILIVTRMLREDYLQQDAFDEVDTYCPPKKQVTMMRVILNFYEKTMQAVDRGVPVDEIAKLPVREKIGRMKFEPDVEKVRALIDETNQQFEELFKKYGA
B8: Thermosome, β subunit (protein, UniProt Q52500 1-546)
chain: MAQLAGQPVVILPEGTQRYVGRDAQRLNILAARIIAETVRTTLGPKGMDKMLVDSLGDIVITNDGATILDEMDIQHPAAKMMVEVAKTQDKEAGDGTTTAVVIAGELLRKAEELLDQNIHPSIIIKGYALAAEKAQEILDEIAKDVDVEDREILKKAAVTSITGKAAEEEREYLAEIAVEAVKQVAEKVGETYKVDLDNIKFEKKEGGSVKDTQLIKGVVIDKEVVHPGMPKRVEGAKIALINEALEVKETETDAEIRITSPEQLQAFLEQEEKMLREMVDKIKEVGANVVFVQKGIDDLAQHYLAKYGIMAVRRVKKSDMEKLAKATGAKIVTNVRDLTPEDLGEAELVEQRKVAGENMIFVEGCKNPKAVTILIRGGTEHVVDEVERALEDAVKVVKDIVEDGKIVAAGGAPEIELAIRLDEYAKEVGGKEQLAIEAFAEALKVIPRTLAENAGLDPIETLVKVIAAHKEKGPTIGVDVFEGEPADMLERGVIAPVRVPKQAIKSASEAAIMILRIDDVIAASKLEKDKEGGKGGSEDFGSDLD
B9: 4Fe-4S cluster-binding protein associated with formate dehydrogenase (TK2075) (protein, UniProt Q5JHW1 1-168)
chain: MTRRILHVDYSLCIGCETCEGVCDFIHGGRPNIKVYYTITGIPVPINCRHCEKAPCMDVCPAGAIYRDSDGAVIINPNKCIGCLMCLAACPFGVPTFDVKLKAVTKCDMCADRRRLGTAPACAEMCPAGAIFFGKPEEVEEKVRRRTAEKIARERLAAVNLEGVGRML
B10: V-type ATP synthase, subunit B (protein, UniProt Q5JIR2 1-465)
chain: MIMPGMEYSTVSKIYGPLMIVQGVKGVAYGEVVEIETESGEKRKGQVLEAREDMAIVQVFEGTRDLDIKTTRVRFTGETLKVPVSMDMLGRIFNGIGKPIDGGPEIIPEDRRDVHGAPLNPVARAYPRDFIQTGISAIDGMNTLVRGQKLPIFSGSGLPHNMLAAQIARQAKVLGEEEQFAVVFAAMGITYEEANFFKKSFEETGAIERAVLFLNLADDPAIERIITPRMALTVAEYLAFDYDMQVLVILTDMTNYAEALREISAAREEVPGRRGYPGYMYTDLATIYERAGRVRGKKGSITQMPILTMPDDDITHPIPDLTGYITEGQIVLSRELHRKGIYPPIDVLPSLSRLMKDGIGKGRTREDHPQLSQQLYAAYAEGRSLRDLVAVVGEEALSETDRKYLKFADRFEREFVAQRYDEDRSIFETLDLGWELLAELPESELKRVRKEYILKYHPKYRKRGE
B11: Superoxide reductase (protein, UniProt Q5JF09 1-115)
chain: MLSQTIKSGDWKGEKHVPVIEYEKEGDLVKVEVSVGKEIPHPNTPEHHIAWIQLWFHPEDGAFPILVGKVEFSNHTDPLTEPRAVFFFRTQKKGKLYALSYCNIHGLWENEVTLE
B12: V-type ATP synthase subunit D (protein, UniProt Q5JIR1 1-214)
chain: MAELLNVKPTRMELLNLKRRITLAKKGHKLLKDKQDALVMEFFTIYDEALRLREELNEKMMEAFKALQRAEIDVGTLRMKEISLSVKPNREVEVKTRNVMGVPVPLIEAESFKRSAGERGYAFVSSSARVDLAAEKFEEVLDLAVRLAEVEETLKRLAKEIEVTKRRVNALEYIIIPRMEATVKFIKQRLDEMERENFFRLKRVKALIEARSGS
B13: Formate dehydrogenase, 4Fe-4S cluster-binding protein (protein, UniProt Q5JHV9 1-166)
chain: MARKTVFIDFSKCIECRACEVACEREHNGRSFINVFEWQEMAAMALNCRHCEKAPCLEVCPTNALYRDGDGAVLLAPQKCIGCLMCGIVCPFGIPELDSLDKIMMKCDLCAHRRAEGKLPACVETCPTDALLFGDFNDIQRMRRQKFTEKAIEIAKSGERIQFRGV
B14: Type II DNA topoisomerase VI, subunit B (protein, UniProt Q5JH81 1-567)
chain: MAEANQLFKEFKIQSVSEFFRRNAAMLGYTGKVRSLTTLVHEAVTNSLDACEEAGIPPYVRVEIEELGNEHYKVVVEDNGPGIPEKYITHVFGKMLAGTKAHRNIQSRGQQGIGISGAVMFAQITSGKATRVITSTGNDEIIEAWVKIDVDKNEGKIVKKEKHPNPKGWRGTRIELEVKNVKYMRSKQGVFWYLKLTAIANPHAHIELIEPDGKLIVFPRSSDYIPEPPVEMKPHPKGVLTDDVYRLAKKTRRNTVRRFLIGEFSRISDKKVDELIEYIAALRLIKTVEDKKLQEQYYQKLMEGHVKAVLRAFKGYTKVVKQVAKMMEKPPEKLTWHEAEEIVEAFKYMKFLAPPTHGLRPIGEENIEKGLKGILKPEFVTAVTRPPKVYSGGIPFQVEVGIAYGGEIPAGFDLYRYANRVPLLFDAGSCVTTQAARSIDWKRYKIDDLDRAPLVLMINVVSVHVPYTGTGKQSIASVDEIYNEIRLAIMDAARRLQTYLSGKHRKLAQVKRRKTFEKYVPEIARALSILTGEPEEKIREYFIRFIESKFASAEVEEVAAEEVAENA
B15: Membrane-bound hydrogenase subunit, MbhI (protein, UniProt Q5JHU8 1-118)
chain: MPEMFGYWDAIYFVFVFIIGLILAYLLDKWAKRSGMGTRETGDGTKIFISGEDPDRIIPGFEHLEGHYTGRNVMWGLTYALKNFFTVLRRDHTGLLTDYASYLVITTAFVLGVLLIWG
B16: Thermosome, α subunit (protein, UniProt P61111 1-548)
chain: MAQLSGQPVVILPEGTQRYVGRDAQRLNILAARIIAETVRTTLGPKGMDKMLVDSLGDIVVTNDGATILDKIDLQHPAAKMMVEVAKTQDKEAGDGTTTAVVIAGELLRKAEELLDQNIHPSIIIKGYALAAEKAQEILDEIAIRVDPDDEETLLKIAATSITGKNAESHKELLAKLAVEAVKQVAEKKDGKYVVDLDNIKFEKKAGEGVEESELVRGVVIDKEVVHPRMPKRVENAKIALINEALEVKKTETDAKINITSPDQLMSFLEQEEKMLKDMVDHIAQTGANVVFVQKGIDDLAQHYLAKYGIMAVRRVKKSDMEKLAKATGAKIVTNVKDLTPEDLGYAEVVEERKLAGENMIFVEGCKNPKAVTILIRGGTEHVIDEVERALEDAVKVVKDVMEDGAVLPAGGAPEIELAIRLDEYAKQVGGKEALAIENFADALKIIPKTLAENAGLDTVEMLVKVISEHKNRGLGIGIDVFEGKPADMLEKGIIEPLRVKKQAIKSASEAAIMILRIDDVIAAKATKPEGGQGGGMPGGMGGMDMGM
B17: Ferredoxin 1 (Fd-1), encoded by TK1694, with C-terminal HA-His6 extension (protein, UniProt Q977X3 1-63)
chain: MAWKVSVDVDTCIGDAICASLCPDVFEMGDDGKAHPVVETTDLDCAQEAAEACPVGAITLEEA

What follows are binders tested against T1, Ferredoxin 3 (Fd-3), encoded by TK2012, with C-terminal HA-His6 extension (Thermococcus kodakarensis) (assay: affinity purification with mass spectrometry; C-terminally HA-His6-tagged Fd made from its own genomic locus; clarified lysates of cultures grown with S0 or without S0 (pyruvate); Ni2+-charged chelating column at 4 °C in 25 mM Tris-HCl pH 8.0, 500 mM NaCl, 10% glycerol; linear imidazole gradient; pooled Fd-containing fractions analysed by MuDPIT; proteins also found in equivalent fractions of parental strain TS559 subtracted).

Binder | binding
B1 | binds
B2 | binds
B3 | binds
B4 | binds
B5 | binds
B6 | binds
B7 | binds
B8 | binds
B9 | binds
B10 | binds
B11 | binds
B12 | binds
B13 | binds
B14 | binds
B15 | binds
B16 | binds
B17 | no binding
